In publication PMC7919836:
No constants are given. Whether binding was seen depends on the method and setting. Binding seen in cells or lysates may run through a third protein. Some entries that bind do so weakly or less than the wild type. Sequences can lack the tags named with a protein.

What was measured:
Test in all cases: pull-down; SFB-tagged DUB (or OTUD6A full length or truncated) and MYC-tagged Aurora-A (full length or truncated) co-transfected into HEK293T; lysis in NETN buffer; DUB pulled down with S-protein beads at 4 °C overnight; Aurora-A blotted with MYC antibody
SFB-tagged USP4 (human) = target: T1, SFB-tagged USP4 (human) (UniProt Q13107)
T1 sequence: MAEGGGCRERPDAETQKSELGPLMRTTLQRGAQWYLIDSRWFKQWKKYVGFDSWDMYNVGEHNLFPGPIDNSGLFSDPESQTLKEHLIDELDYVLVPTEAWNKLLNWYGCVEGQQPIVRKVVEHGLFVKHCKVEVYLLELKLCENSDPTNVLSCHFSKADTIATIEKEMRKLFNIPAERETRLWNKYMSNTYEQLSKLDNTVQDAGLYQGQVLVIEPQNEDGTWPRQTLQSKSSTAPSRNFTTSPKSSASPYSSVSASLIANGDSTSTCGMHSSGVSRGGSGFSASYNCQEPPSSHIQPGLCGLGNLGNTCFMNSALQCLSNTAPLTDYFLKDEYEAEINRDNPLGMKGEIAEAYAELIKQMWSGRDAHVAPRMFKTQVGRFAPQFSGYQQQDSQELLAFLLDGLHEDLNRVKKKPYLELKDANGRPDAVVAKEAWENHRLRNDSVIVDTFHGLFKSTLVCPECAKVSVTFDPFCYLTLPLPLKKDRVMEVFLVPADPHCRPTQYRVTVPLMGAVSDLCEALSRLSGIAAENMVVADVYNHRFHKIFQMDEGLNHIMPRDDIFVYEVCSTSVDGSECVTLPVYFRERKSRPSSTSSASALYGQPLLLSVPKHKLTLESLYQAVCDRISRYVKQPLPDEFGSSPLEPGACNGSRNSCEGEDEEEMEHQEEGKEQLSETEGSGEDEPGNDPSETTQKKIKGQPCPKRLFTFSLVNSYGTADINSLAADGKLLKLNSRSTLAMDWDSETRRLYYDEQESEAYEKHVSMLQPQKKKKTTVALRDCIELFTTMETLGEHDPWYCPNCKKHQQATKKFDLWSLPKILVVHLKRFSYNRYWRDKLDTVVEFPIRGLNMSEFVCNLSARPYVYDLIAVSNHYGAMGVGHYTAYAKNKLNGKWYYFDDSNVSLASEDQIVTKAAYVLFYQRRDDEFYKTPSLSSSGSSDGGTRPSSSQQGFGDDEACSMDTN

SFB-tagged OTUD1 (human) = target: T2, SFB-tagged OTUD1 (human) (UniProt Q5VV17)
T2 sequence: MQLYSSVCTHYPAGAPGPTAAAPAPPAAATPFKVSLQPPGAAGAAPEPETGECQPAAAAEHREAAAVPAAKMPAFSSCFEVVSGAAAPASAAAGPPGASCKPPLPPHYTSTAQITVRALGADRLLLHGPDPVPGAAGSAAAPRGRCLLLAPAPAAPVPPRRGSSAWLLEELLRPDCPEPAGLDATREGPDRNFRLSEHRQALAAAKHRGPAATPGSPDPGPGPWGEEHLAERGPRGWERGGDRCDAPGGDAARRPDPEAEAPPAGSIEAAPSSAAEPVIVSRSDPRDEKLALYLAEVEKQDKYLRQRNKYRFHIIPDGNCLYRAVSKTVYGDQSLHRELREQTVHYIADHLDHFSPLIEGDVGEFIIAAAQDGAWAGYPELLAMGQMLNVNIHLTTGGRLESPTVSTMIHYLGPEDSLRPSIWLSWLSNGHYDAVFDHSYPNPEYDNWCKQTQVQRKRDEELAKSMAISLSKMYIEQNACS

SFB-tagged CYLD (human) = target: T3, SFB-tagged CYLD (human) (UniProt Q9NQC7)
T3 sequence: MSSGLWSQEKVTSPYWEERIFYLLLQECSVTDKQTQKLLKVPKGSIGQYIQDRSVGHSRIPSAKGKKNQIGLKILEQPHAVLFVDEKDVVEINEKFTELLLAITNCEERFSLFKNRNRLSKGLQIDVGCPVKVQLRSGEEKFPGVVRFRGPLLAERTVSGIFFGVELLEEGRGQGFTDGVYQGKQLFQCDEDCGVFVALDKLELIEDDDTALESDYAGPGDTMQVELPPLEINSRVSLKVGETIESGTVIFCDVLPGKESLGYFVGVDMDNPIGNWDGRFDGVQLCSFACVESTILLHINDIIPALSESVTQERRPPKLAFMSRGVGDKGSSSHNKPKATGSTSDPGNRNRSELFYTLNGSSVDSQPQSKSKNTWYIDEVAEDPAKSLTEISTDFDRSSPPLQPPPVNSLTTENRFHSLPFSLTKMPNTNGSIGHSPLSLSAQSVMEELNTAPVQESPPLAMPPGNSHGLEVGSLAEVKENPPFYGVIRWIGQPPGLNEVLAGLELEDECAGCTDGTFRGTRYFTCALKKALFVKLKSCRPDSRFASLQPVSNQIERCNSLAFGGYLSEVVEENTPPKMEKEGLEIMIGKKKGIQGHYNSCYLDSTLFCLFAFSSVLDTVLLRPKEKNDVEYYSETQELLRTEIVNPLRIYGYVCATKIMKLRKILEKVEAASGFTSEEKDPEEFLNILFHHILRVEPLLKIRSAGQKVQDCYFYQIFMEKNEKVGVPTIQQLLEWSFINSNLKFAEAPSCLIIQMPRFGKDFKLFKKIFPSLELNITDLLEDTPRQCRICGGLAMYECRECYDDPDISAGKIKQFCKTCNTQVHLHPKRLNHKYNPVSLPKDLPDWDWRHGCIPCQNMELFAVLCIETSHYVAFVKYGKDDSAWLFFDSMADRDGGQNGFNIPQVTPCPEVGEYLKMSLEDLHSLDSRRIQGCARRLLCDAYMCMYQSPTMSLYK

binding (SFB-tagged USP4 (human)): binds | binding (SFB-tagged OTUD1 (human)): binds | binding (SFB-tagged CYLD (human)): binds
B1: MYC-tagged Aurora kinase A, full-length wild type (aa 1-403) (protein, UniProt O14965 1-403)
chain: MDRSKENCISGPVKATAPVGGPKRVLVTQQFPCQNPLPVNSGQAQRVLCPSNSSQRIPLQAQKLVSSHKPVQNQKQKQLQATSVPHPVSRPLNNTQKSKQPLPSAPENNPEEELASKQKNEESKKRQWALEDFEIGRPLGKGKFGNVYLAREKQSKFILALKVLFKAQLEKAGVEHQLRREVEIQSHLRHPNILRLYGYFHDATRVYLILEYAPLGTVYRELQKLSKFDEQRTATYITELANALSYCHSKRVIHRDIKPENLLLGSAGELKIADFGWSVHAPSSRRTTLCGTLDYLPPEMIEGRMHDEKVDLWSLGVLCYEFLVGKPPFEANTYQETYKRISRVEFTFPDFVTEGARDLISRLLKHNPSQRPMLREVLEHPWITANSSKPSNCQNKESASKQS
